For at least one compound, name, drawing or mass did not settle the structure.
Columns and labels:
HT-29 cells [1] = assay: Microscopic cytology of bell shaped metakaryotic nuclei in treated HT-29 cells (Hoechst, DAPI, Feulgen staining); type: cell-based, human
HT-29 cells [2] = assay: Survival assay counting large colonies of HT-29 cells plated as single cells in T-flasks, with replating of surviving colonies; type: cell-based, human
Description: Large colonies visible to the eye and containing approximately 250 or more cells are enumerated manually or by an electronic colony counter adjusted to recognize colonies of these sizes.
As a practical tactic, the total number of large colonies (>250 cells) are counted and the number appearing on […] to untreated plates identifies the treatment as having killed either or both colonies arising from eukaryotic non-stem cells or from metakaryotic stem cells.
The assay, in one embodiment, involved plating single cells from an exponentially growing HT-29 cell culture in plastic T-flasks and counting the large colonies apparent five weeks after plating. Untreated control flasks provided the total number of immortal colonies and larger mortal colonies.

Structure (SMILES): C[C@H]1c2cccc(O)c2C(=O)C2=C(O)[C@]3(O)C(=O)C(C(N)=O)=C(O)[C@@H](N(C)C)[C@@H]3[C@@H](O)[C@@H]21 [doxycycline]
- nuclei of metakaryotic stem cells (HT-29 cells [1]; HT-29, 10 microgram/ml for two weeks): pyknotic nuclei
- pyknotic bell shaped nuclei with condensed chromatin (HT-29 cells [1]; HT-29 and CAPAN-1 cell cultures): dead (pyknotic) bell shaped metakaryotic cell nuclei
- aspect of bell shaped nuclei of metakaryotic colonies at the end of treatment (HT-29 cells [1]; HT-29 colony assay flasks, end of treatment): displayed recognizable deformed pyknotic aspects
- condensation of chromatin in bell shaped metakaryotic nuclei (HT-29 cells [1]; HT-29 cultures): observed
- nature of surviving colonies (metakaryotic cells, growth upon passaging) (HT-29 cells [2]; HT-29, appropriate concentrations and durations of exposure): did not contain discernable metakaryotic cells nor were they capable of continued growth upon passaging
- effect of higher concentrations on cells (HT-29 cells [2]; HT-29, two weeks, concentrations higher than the range of the figure): killed all cells
- stem cell number, by fraction of treated cells giving large, growing immortal colonies (HT-29 cells [2]; HT-29 and CAPAN-1 lines): reduction of stem cell number
- applicants' interpretation of selectivity (metakaryotic stem cells versus eukaryotic cells) (HT-29 cells [2]; HT-29 cell population): exterminated the metakaryotic stem cells but were not cytotoxic to the eukaryotic non-stem cells
